Measured values: publication PMC11040345

Chains of the proteins cited; added tags and fusions are not shown.
UniProt P19338: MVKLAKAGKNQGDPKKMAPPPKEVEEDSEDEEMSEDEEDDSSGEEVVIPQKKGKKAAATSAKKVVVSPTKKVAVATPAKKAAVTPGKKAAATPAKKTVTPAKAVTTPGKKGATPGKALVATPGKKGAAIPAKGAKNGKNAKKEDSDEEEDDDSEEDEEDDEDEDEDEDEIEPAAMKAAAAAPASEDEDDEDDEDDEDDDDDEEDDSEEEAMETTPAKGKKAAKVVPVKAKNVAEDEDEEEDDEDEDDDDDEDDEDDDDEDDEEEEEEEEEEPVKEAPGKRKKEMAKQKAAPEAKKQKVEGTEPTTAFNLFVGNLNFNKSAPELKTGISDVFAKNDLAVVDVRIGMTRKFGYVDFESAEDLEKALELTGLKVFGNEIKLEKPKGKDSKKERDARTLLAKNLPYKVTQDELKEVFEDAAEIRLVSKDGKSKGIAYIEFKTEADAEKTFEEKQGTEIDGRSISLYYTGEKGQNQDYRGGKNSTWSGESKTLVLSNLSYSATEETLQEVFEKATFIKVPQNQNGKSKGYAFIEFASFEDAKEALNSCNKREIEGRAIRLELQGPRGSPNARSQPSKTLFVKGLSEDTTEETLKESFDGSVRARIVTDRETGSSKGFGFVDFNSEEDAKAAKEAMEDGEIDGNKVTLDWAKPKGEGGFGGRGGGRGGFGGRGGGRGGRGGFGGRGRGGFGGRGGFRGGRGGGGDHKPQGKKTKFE
UniProt P19474: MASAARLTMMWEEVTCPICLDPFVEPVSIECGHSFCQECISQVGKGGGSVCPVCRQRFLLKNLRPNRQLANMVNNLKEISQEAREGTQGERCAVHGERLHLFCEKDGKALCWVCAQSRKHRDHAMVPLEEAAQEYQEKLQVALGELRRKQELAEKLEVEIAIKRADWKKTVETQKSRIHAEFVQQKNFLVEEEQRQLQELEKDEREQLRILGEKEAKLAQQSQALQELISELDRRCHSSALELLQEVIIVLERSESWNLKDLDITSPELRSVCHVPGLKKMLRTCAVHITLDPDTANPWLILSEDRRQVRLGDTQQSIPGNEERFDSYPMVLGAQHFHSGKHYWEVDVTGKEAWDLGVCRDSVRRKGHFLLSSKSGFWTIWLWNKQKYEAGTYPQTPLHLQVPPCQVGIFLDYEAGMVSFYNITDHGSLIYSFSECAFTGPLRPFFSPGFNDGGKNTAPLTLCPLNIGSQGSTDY

Target: nucleolin (NCL) (human (endogenous in HCCLM3)) (UniProt P19338)
Assay: affinity purification with mass spectrometry; co-IP with the NCL antibody, silver staining of the obtained protein samples, then MS analysis; cells not stated in the text shown

binding: binds
Substance: tripartite motif-containing 21 (TRIM21) (from UniProt P19474 1-475)

These are yes or no findings as the source states them, for the method shown. In cells and extracts the contact can be indirect. Here binding means that the protein was enriched with, or labelled near, the bait; the list need not be complete.
